# Source: PubChem BioAssay AID1671190 (National Center for Advancing Translational Sciences (NCATS), 2021)
# Chains of the proteins cited; added tags and fusions are not shown. Lines headed by an entry give the natural chain unless they say otherwise; changes in a name come on top.
# UniProt P18054: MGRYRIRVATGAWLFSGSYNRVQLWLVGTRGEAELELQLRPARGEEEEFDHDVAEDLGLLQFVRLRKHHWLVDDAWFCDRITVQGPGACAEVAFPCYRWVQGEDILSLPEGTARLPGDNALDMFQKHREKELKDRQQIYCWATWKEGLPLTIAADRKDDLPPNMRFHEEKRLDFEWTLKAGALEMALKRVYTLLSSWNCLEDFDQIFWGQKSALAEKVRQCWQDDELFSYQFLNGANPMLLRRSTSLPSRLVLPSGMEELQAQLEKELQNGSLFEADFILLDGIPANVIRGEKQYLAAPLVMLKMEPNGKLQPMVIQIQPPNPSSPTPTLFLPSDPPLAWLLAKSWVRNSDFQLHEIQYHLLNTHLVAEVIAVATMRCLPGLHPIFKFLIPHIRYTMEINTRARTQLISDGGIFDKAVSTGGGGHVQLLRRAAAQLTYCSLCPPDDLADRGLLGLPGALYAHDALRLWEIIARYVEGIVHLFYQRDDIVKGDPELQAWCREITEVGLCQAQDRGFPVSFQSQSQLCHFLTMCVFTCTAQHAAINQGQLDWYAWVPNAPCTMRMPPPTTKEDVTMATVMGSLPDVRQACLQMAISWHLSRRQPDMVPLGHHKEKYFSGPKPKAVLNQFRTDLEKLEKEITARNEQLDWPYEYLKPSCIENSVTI
# About 6,100 (1.1%) of roughly 580,000 compounds were called active. Inconclusive results, whose numbers are uncertain, are shown with a selection of clear calls. Calls come from the whole dose curve; as a rule, active = well fitted inhibition curve with a large enough effect; inconclusive = small, poorly fitted or top-dose-only effect, or another doubt; inactive = no such curve, though single readings can be large or run the other way. Potencies beside an inconclusive call are fits to weak or partial responses and may not hold up.
# Target: Polyunsaturated fatty acid lipoxygenase ALOX12 (Homo sapiens) (UniProt P18054)
# Assay: Primary qHTS assay for inhibitors of human arachidonate 12S-lipoxygenase (ALOX12): Round 2
# Conditions: purified 12hLO, xylenol orange hydroperoxide absorbance
# Procedure, shortened: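 Hydroperoxide product was detected by ferrous iron/xylenol orange as the 573 to 405 nm absorbance ratio. Arachidonic acid at 40 uM (final) was turned over for 30 min at room temperature by 150 nM human 12hLO, pH 7.0 Hepes buffer, after 15 min compound preincubation.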
# [1] = activity change, negative = inhibition: at 108 µM (top of the series) unless noted
# % is set by controls: 0 for no effect and ±100 for the full control effect; potency is the fitted concentration of half-maximal effect.
smiles,measurement,setting,value
O=c1[nH]c(C2CCN(S(=O)(=O)c3cccc(Cl)c3)CC2)nc2c1nnn2Cc1ccccc1,Potency,[1],inactive
COc1ccc(NC(=O)CSc2nnc(-c3ccccc3Cl)n2Cc2ccco2)c(OC)c1,Potency,[1],"inconclusive: 50.1 µM [inhibitor, single point]"
COc1ccc(NC(=O)CN(C)CC(=O)Nc2ccccc2)cc1,Potency,[1],inactive
Cc1[nH]c(=O)c(C#N)cc1C(=O)N1CCCC2(CCC(=O)N(C3CC3)C2)C1 (centres undefined),Potency,[1],inactive
C[C@]12CCC(=O)C=C1CC[C@@H]1[C@@H]2CC[C@@]2(C)[C@H]1CC[C@@]21CCC(=O)O1,Potency,[1],"inconclusive: 100 µM [inhibitor, partial curve, poor fit]"
O=C1C=CC(=CN(O)c2ccccc2)C=C1,Potency,[1],"inconclusive: 31.6 µM [inhibitor, single point]"
O=C1S/C(=C\c2ccc(N3CCOCC3)o2)C(=O)N1c1ccccc1,Potency,[1],"inconclusive: 39.8 µM [inhibitor, partial curve, poor fit]"
CCOc1ccc(CCNC(=O)CSCc2ccc(C)cc2)cc1OCC,Potency,[1],inactive
O=C(c1ccc(C(F)(F)F)cc1)N1CCc2nc(-c3ccc(Cl)cc3)nc(-c3ccccc3)c2C1,Potency,[1],"inconclusive: 100 µM [inhibitor, partial curve, poor fit]"
CC(C)C(c1nnnn1Cc1ccccc1)N1CCN(Cc2ccco2)CC1 (centres undefined),Potency,[1],"inconclusive: 7.94 µM [inhibitor, partial curve, poor fit]"
CN1CCN(C(=S)NC(=O)/C=C/c2ccccc2Cl)CC1,Potency,[1],"inconclusive: 141 µM [inhibitor, partial curve, poor fit]"
CCn1c2c(c(=O)n1-c1ccccc1)CCN(Cc1cncc(OC)c1)C2,Potency,[1],"inconclusive: 31.6 µM [inhibitor, full curve]"
Cn1c(=O)n(Cc2ccccc2)c(=O)c2c1nc(SCCO)n2Cc1ccccc1,Potency,[1],inactive
N#Cc1cccc(C(=O)N2CCCN(S(=O)(=O)c3ccccc3)CCC(=O)NCC2)c1,Potency,[1],inactive
O=C(c1cccs1)N1CCCc2ccccc21,Potency,[1],inactive
Cn1ccnc1Sc1ccc(C(N)=O)cc1[N+](=O)[O-],Potency,[1],inactive
CC(C)OCCCNC(=O)c1ccc2c(c1)NC(=O)c1ccccc1S2,"activity change, negative = inhibition",[1],inconclusive: -40.6% [inhibitor]
same,"activity change, negative = inhibition",at 108 µM (top of the series),inactive: -1.18%
COc1ccc(-c2ccc(CN3C(CC(C)C)C(=O)N(Cc4cn(CC5CCCCC5)nn4)CCS3(=O)=O)cc2)cn1 (centres undefined),Potency,[1],"inconclusive: 79.4 µM [inhibitor, single point]"
CS(=O)(=O)Nc1cccc(-c2ccc3ncnc(Nc4ccccc4)c3c2)c1,Potency,[1],"inconclusive: 25.1 µM [inhibitor, partial curve, poor fit]"
CCOc1ccc(C(=O)C(c2ccccc2)N2CCOCC2)cc1 (centres undefined),Potency,[1],"inconclusive: 39.8 µM [inhibitor, partial curve, poor fit]"
Cc1cc2oc(C(=O)NCC(c3cccs3)N3CCCCCC3)cc(=O)c2cc1C (centres undefined),Potency,[1],inactive
O=C(O)Cn1nc(C2CCOCC2)nc1C1CNC(=O)C1 (centres undefined),Potency,[1],inactive
CC1(OC(=O)c2ccc(Cl)nc2)C(=O)C=C2C=C3CCCN3C=C2C1=O (centres undefined),Potency,[1],"inconclusive: 3.55 µM [inhibitor, full curve]"
Cc1cccc(C)c1NC(=O)C1(C)CSCC(=O)N1CCc1ccccc1 (centres undefined),Potency,[1],"inconclusive: 89.1 µM [inhibitor, single point]"
COc1cc(NC(=O)C2CSC3(C)CCC(=O)N23)c(OC)cc1Cl (centres undefined),Potency,[1],"inconclusive: 89.1 µM [inhibitor, partial curve, poor fit]"
Cc1ccccc1-n1nc(C)c(CCC(=O)NCC2CCCO2)c1Oc1ccccc1F (centres undefined),Potency,[1],inactive
Cc1noc(C)c1-c1csc(N2CCC(C(N)=O)CC2)n1,Potency,[1],"inconclusive: 44.7 µM [inhibitor, partial curve, poor fit]"
CCOc1ccc(Nc2oc(-c3ccc(Cl)cc3)nc2C#N)cc1,Potency,[1],"inconclusive: 0.199 µM [inhibitor, full curve, poor fit]"
COc1cccc(-c2ccc(NC(=O)C3CCCN(CCCn4cccn4)C3)cc2)c1 (centres undefined),Potency,[1],"inconclusive: 126 µM [inhibitor, single point]"
O=C(c1cc(-c2ccc(Cl)cc2)n(-c2ccc(Cl)cc2)n1)N1CCOCC1,Potency,[1],"inconclusive: 79.4 µM [inhibitor, partial curve, poor fit]"
C=CCN(C(=O)CSc1nc2ccsc2c(=O)n1Cc1ccc(C(=O)O)cc1)c1ccccc1,Potency,[1],inactive
O=Cc1c(-c2ccccc2)cc2ccccn12,Potency,[1],"inconclusive: 39.8 µM [inhibitor, partial curve]"
CCN(CC)S(=O)(=O)c1cccc2cc(C(=O)O)c(O)cc12,Potency,[1],"inconclusive: 44.7 µM [inhibitor, partial curve, poor fit]"
CC1=C/C(=N\Nc2ccccc2Cl)CC1,Potency,[1],"inconclusive: 4.47 µM [inhibitor, full curve, poor fit]"
O=C(COc1ccccc1Cl)Nc1ccc(NC(=O)c2ccco2)cc1,Potency,[1],"inconclusive: 158 µM [inhibitor, partial curve, poor fit]"
O=C(CCC(=O)N1CCOc2ccc(Cl)cc21)NCCCN1CCN(c2ccccc2F)CC1,Potency,[1],inactive
Cc1c2c(cc3c1[nH]c1ccccc13)C=NCC2,Potency,[1],inactive
O=C(N/N=C/c1ccco1)Nc1ccccc1,Potency,[1],inactive
O=C1Nc2ccccc2C1=Nc1ccc(Br)cc1,Potency,[1],"inconclusive: 2 µM [inhibitor, full curve]"
CC(C)N(C(=O)[C@H]1C[C@H](CC(=O)NCCCN(C)C)C(=O)N2CCc3c([nH]c4cc(CCC(=O)N(C)C)ccc34)[C@]12C)C(C)C,Potency,[1],inactive
C/C(=N\NC(=S)NC(C)C)c1ccc2c(c1)OCCO2,Potency,[1],"inconclusive: 39.8 µM [inhibitor, partial curve, poor fit]"
CCOC(=O)c1cc2c(ccn2C)n1CC(=O)N(C)C,Potency,[1],"inconclusive: 112 µM [inhibitor, single point]"
Cc1ccccc1NC(=O)CSc1ccc(-c2ccco2)nn1,Potency,[1],inactive
CC(=O)NC1(C)CCN(Cc2ccccc2-c2ccc3c(ccn3C)c2)C1 (centres undefined),Potency,[1],active: 28.2 µM
c1ccc(-c2nnc3ccc(N4CCCC4)nn23)cc1,Potency,[1],inactive
COc1ccc(Cl)cc1NC(=O)c1cccc([N+](=O)[O-])c1O,Potency,[1],"inconclusive: 89.1 µM [inhibitor, single point]"
CC(CCc1ccccc1)NCc1cccc2ccccc12 (centres undefined),Potency,[1],"inconclusive: 3.98 µM [inhibitor, full curve, poor fit]"
COc1ccc(C2c3c(n(C)c4ccccc34)C(=O)N2CC(=O)Nc2ccc(C)c(Cl)c2)cc1 (centres undefined),Potency,[1],"inconclusive: 63.1 µM [inhibitor, partial curve, poor fit]"
CCOC(=O)[C@]12CCCC=C1N(CCc1ccc(OC)c(OC)c1)C(=O)[C@H](CC(=O)N1CCN(C(=O)C3CC3)CC1)C2,Potency,[1],inactive
O=C(O)C1CCc2nnc(C3CCN([S+](=O)([O-])C4CCCC4)CC3)n21 (centres undefined),Potency,[1],"inconclusive: 11.2 µM [inhibitor, full curve]"
Cc1ccc(NC(=O)Cn2cc(S(=O)(=O)c3ccc(C)cc3)c(=O)c3cc4c(cc32)OCO4)cc1,Potency,[1],"inconclusive: 31.6 µM [inhibitor, partial curve]"
CC(=O)Nc1cc(OC(C)=O)c2nonc2c1OC(C)=O,Potency,[1],inactive
COc1ccc(CCN2CCC(Nc3nc4ccccc4n3Cc3ccc(F)cc3)CC2)cc1,Potency,[1],"inconclusive: 70.8 µM [inhibitor, partial curve, poor fit]"
Cc1ccc2c(CC(=O)N(C)c3c(N)n(Cc4ccccc4)c(=O)[nH]c3=O)coc2c1,Potency,[1],"inconclusive: 70.8 µM [inhibitor, partial curve, poor fit]"
O=c1c(Cl)c(N2CCN(c3ccccc3)CC2)cnn1-c1nc2ccccc2s1,Potency,[1],inactive
COc1ccccc1Cn1c(CNS(=O)(=O)c2ccc(C(C)C)cc2)nc2cccnc21,Potency,[1],inactive
COc1ccc2nc(SCC(=O)c3c(N)n(C4CC4)c(=O)[nH]c3=O)[nH]c2c1,Potency,[1],"inconclusive: 100 µM [inhibitor, single point]"
CCC(=O)N1CCCc2cc(S(=O)(=O)N3CCC(C(=O)NC4CCCCC4)CC3)ccc21,Potency,[1],inactive
COc1ccc(CNC(=O)c2nc(SCc3ccccc3F)ncc2Cl)cc1,Potency,[1],"inconclusive: 1.58 µM [inhibitor, full curve]"
CC1(C(=O)NS(=O)(=O)c2ccc(Cl)cc2)CCN1C(=O)C/C=C/c1ccccc1 (centres undefined),Potency,[1],"inconclusive: 39.8 µM [inhibitor, partial curve, poor fit]"
COc1ccc(C(=O)NC(=S)NNC(=O)c2ccc(NC(=O)C(C)C)cc2)cc1,Potency,[1],active: 44.7 µM
CCOC(=O)c1ccc2[nH]c(CSCC(=O)Nc3ccc(CC)cc3)cc(=O)c2c1,Potency,[1],inactive
O=c1c2ccccc2sn1-c1cc(S(=O)(=O)N2CCOCC2)ccc1N1CCOCC1,Potency,[1],"inconclusive: 0.224 µM [inhibitor, full curve, poor fit]"
CC(C)NC(=O)c1cc(Br)c(Br)s1,Potency,[1],"inconclusive: 63.1 µM [inhibitor, partial curve, poor fit]"
COc1cc(C2c3cc4c(cc3OC(N3CCCCC3)C2C)OCO4)cc(OC)c1O (centres undefined),Potency,[1],inactive
O=S(=O)(NCc1ccc(N2CCOCC2)nc1)c1cc(C(F)(F)F)cc(C(F)(F)F)c1,Potency,[1],active: 7.08 µM
Cc1nc(NC(=O)c2cc(Cl)cc(Cl)c2)sc1C,Potency,[1],"inconclusive: 50.1 µM [inhibitor, partial curve, poor fit]"
CCc1ccc(-c2nc(C)c(CCO)c(=O)[nH]2)cc1,Potency,[1],"inconclusive: 44.7 µM [inhibitor, partial curve, poor fit]"

# Reformatted bar-delimited: entries from further up
smiles | measurement | setting | value
CC1=C/C(=N\Nc2ccccc2Cl)CC1 | Potency | [1] | inconclusive: 4.47 µM [inhibitor, full curve, poor fit]
COc1ccc2nc(SCC(=O)c3c(N)n(C4CC4)c(=O)[nH]c3=O)[nH]c2c1 | Potency | [1] | inconclusive: 100 µM [inhibitor, single point]
